In publication PMC7501100:
Results are given in words; binding and its absence hold for the method and conditions named. In cells and extracts the contact can be indirect. Some entries that bind do so weakly or less than the wild type.

Amino acid sequences for entries named in this document (tags omitted). A change or cut given only in a name is not applied to a line headed by its entry. Residues count along the entry.
UniProt P0DN87, residues 21-165: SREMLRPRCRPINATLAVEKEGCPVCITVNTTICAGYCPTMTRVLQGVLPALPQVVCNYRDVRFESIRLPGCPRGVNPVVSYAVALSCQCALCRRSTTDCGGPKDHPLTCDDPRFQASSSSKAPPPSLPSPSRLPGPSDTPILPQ
UniProt P01215, residues 25-116: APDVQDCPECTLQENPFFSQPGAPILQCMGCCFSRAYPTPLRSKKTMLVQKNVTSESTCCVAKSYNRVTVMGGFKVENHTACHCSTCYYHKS

Assays:
[1] = biological target: human chorionic gonadotropin beta subunit variant CGB3/5/8, His-tagged (human) (UniProt P0DN86); assay: pull-down; Ni-NTA agarose capture of His-tagged CGB from the supernatant of HEK293 cells co-expressing untagged CGA; washes with PBS, 5 and 10 mM imidazole; elution with 250 mM imidazole in PBS; CGA seen by SDS-PAGE (Coomassie) and Western blot with anti-CGA
[2] = biological target: human chorionic gonadotropin beta subunit variant CGB7, His-tagged (human) (UniProt P0DN87); assay: as above

- binding [1]: binds
- binding [2]: binds
Substance: human chorionic gonadotropin alpha subunit (CGA) (from UniProt P01215 25-116)
